Assay results from article PMC11810119.
These are yes or no findings as the source states them, for the method shown. Binding seen in cells or lysates may run through a third protein. A yes stands for co-enrichment or nearness to the bait. Other partners may have been found.

Chains of the proteins cited; added tags and fusions are not shown.
UniProt O35889: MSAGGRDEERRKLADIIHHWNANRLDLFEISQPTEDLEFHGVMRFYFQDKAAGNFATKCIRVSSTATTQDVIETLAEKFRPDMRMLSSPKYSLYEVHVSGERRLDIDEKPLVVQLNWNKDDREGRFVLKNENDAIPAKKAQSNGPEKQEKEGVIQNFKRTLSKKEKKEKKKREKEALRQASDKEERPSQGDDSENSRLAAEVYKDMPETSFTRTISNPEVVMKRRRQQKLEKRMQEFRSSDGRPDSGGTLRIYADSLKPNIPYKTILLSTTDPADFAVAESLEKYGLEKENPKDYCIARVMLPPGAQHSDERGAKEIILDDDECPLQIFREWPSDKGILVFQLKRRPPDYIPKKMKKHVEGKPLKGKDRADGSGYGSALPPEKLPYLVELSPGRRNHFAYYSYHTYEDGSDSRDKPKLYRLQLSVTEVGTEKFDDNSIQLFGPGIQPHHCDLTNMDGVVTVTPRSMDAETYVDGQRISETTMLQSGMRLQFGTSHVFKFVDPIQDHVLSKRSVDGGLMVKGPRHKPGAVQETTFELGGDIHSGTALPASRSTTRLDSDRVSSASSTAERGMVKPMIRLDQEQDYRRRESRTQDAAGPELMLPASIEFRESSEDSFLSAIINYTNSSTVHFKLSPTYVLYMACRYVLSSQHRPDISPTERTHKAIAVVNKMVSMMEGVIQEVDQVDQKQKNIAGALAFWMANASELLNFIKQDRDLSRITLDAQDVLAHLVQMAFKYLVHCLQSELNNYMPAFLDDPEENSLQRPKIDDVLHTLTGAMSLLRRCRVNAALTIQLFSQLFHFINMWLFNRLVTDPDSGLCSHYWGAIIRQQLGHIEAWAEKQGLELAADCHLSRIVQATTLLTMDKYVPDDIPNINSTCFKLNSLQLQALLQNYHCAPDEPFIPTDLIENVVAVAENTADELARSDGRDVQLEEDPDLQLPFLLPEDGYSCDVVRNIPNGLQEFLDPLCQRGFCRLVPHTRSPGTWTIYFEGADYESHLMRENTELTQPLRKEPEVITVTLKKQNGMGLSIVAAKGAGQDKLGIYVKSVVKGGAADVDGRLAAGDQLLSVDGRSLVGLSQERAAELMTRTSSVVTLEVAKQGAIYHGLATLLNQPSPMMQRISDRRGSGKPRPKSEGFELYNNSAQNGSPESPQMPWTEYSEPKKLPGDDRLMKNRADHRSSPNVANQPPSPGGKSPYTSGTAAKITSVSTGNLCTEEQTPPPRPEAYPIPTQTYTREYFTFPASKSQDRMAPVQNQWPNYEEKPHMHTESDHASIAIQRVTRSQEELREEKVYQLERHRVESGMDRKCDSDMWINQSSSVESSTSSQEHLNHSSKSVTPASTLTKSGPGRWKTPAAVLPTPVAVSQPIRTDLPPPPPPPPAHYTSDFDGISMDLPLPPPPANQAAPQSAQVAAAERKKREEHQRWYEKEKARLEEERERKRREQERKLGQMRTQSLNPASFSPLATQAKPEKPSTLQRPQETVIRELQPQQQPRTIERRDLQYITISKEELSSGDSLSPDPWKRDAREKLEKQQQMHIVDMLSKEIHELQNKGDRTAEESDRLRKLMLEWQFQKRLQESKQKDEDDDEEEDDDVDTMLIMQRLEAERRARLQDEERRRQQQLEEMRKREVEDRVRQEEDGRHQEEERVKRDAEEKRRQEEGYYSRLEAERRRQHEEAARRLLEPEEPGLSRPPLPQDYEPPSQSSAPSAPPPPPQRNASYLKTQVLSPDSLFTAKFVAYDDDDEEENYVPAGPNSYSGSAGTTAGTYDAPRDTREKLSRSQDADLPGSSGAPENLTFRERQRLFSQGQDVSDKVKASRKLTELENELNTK
UniProt O97758: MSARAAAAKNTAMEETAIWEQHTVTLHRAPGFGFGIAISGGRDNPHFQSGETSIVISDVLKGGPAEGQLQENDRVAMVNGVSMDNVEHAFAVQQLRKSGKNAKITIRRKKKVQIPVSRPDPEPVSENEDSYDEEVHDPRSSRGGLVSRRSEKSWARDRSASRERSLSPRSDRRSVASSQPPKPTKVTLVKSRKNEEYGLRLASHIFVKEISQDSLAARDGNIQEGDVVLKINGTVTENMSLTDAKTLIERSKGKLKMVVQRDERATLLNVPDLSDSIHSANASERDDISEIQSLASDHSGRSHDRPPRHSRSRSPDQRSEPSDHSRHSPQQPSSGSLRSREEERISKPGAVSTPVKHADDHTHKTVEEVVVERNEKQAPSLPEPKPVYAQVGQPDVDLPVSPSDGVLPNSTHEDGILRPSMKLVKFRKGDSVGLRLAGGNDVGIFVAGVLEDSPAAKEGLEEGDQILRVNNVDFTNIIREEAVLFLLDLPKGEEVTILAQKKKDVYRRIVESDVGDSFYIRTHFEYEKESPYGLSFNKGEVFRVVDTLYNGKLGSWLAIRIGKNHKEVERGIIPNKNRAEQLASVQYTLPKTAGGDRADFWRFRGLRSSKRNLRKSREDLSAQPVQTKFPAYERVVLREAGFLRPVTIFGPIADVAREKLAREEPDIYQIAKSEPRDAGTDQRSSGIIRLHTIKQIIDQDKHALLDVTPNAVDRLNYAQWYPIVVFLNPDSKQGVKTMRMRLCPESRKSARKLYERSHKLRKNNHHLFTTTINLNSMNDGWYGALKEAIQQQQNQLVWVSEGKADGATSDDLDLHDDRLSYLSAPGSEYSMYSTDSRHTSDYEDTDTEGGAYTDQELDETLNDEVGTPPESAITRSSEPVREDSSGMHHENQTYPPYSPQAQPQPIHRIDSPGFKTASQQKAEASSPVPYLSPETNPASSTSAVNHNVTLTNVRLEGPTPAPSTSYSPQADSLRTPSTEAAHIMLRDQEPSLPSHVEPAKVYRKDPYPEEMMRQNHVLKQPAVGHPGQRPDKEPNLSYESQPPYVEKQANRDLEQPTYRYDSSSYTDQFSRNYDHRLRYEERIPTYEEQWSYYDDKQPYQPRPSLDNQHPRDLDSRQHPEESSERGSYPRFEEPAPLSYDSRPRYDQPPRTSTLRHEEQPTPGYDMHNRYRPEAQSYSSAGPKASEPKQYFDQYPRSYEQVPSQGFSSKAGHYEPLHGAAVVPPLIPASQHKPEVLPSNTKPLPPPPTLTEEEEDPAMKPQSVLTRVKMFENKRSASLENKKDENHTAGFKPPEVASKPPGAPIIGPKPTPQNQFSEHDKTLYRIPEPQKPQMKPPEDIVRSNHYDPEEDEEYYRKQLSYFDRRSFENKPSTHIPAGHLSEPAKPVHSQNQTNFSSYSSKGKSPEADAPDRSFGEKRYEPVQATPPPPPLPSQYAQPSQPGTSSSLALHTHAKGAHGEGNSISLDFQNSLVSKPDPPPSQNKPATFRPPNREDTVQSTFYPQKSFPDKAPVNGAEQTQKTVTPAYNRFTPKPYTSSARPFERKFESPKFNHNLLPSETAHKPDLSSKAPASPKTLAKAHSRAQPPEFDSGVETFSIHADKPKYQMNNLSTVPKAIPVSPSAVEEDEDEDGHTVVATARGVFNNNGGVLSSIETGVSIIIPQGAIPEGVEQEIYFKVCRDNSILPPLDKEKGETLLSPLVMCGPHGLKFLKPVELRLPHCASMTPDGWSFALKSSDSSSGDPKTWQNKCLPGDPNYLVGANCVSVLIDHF

What was measured:
Afadin-BL (rat) [1] = biological target: Afadin-BL (rat) (UniProt O35889); assay: proximity labelling; BirA*-Afadin fusion in stable MDCK lines, biotin over a time course of hours, biotinylated proteins affinity-purified with streptavidin, immunoblot for junctional and cytoskeletal proteins
BL-Afadin (rat) [2] = biological target: BL-Afadin (rat) (UniProt O35889); assay: as above
Afadin-BL (rat) [3] = biological target: Afadin-BL (rat) (UniProt O35889); assay: proximity labelling; BioID: BirA*-Afadin fusion expressed in MDCK cells (duplicates; one replicate each also in ZO-1/ZO-2 knock-down MDCK cells), 50 µM biotin for 24 h, lysates on streptavidin Dynabeads, trypsin digestion, label-free LC-MS/MS; hits SAINT >=0.9 versus BirA* alone
BL-Afadin (rat) [4] = biological target: BL-Afadin (rat) (UniProt O35889); assay: as above

Measured: binding

Tight junction protein 1 =ZO-1 (from UniProt O97758 1-1769)
binds: all assays above

B1: Tight junction protein 2=ZO-2 (protein, UniProt Q95168 1-1174)
chain: MEELIWEQYTVTLQKDSKRGFGIAVSGGRDNPHFENGETSIVISDVLPGGPADGLLQENDRVVMVNGTPMEDVLHSFAVQQLRKSGKIAAIVVKRPRKVQLAPPQGSLPVDEDDRAFEVMDEFDGRSARSGYSERSRRSSHGGRSRSWEDSPERGRPHERAWSQERERSRGRSLERGLDHDDDYRRPRERSRGRSLERGLDHDDDYGRPGERSHGMSTDRGYDRGYDRGYDRGYDRTYSPEAEYGRRTQPDARHAGSRSRSREHLRSRSPSPELRGRPDHAGQPDSDRPIGVLLMKSKANEEYGLRLGSQIFIKQMTRTALATKDGNLHEGDIILKINGTVTENMSLTDARKLIEKSRGKLQLVVLRDSKQTLINIPSLNDSDSEIEDISEIESNRSFSPEERRQQYSDYDYHSSNEKLKERPNSREDMQNRWSRMGATPTPFKSMGDIASVVGTENSKEPRYQEEPPAPQPKAAPRTFLRPSPEDEAIYGPNTKMVRFKKGDSVGLRLAGGNDVGIFVAGIQEGTSAEQEGLQEGDQILKVNTQDFRGLVREDAVLYLLEIPKGEMVTILAQSRADVYRDILACGRGDSFFIRSHFECEKETPQSLAFSRGEVFRVVDTLYDGKLGHWLAVRIGNELEKGLIPNKSRAEQMASVQNAQRDNAGDRADFWRMRGQRSGMKKNLRKSREDLTAAVSVSTKFPAYERVLLREAGFKRPVVLFGPIADIALEKLANELPDLFQTAKTEPKDAGSEKSSGVVRLNTVRQIIEQDKHALLDVTPKAVDLLNYTQWFPIVIFFNPDSRQGVKTMRQRLNPTSNKSSRKLYDQANKLKKTCAHLFTATINLNSANDSWFGSLKDTIQHQQGEAVWVSEGKMEGMDDDPEDRMSYLTAMGADYLSCDSRLISDFEDTDGEGGAYTDNELDEPAEEPLVSSITRSSEPVQHEESIRKPSPEPRAQMRRAASRDQLRDSSPPPAFKPEPPKAKTQNREESFDISRSHDYKSNPSAVAGNEVSGASTRSCPPPIAAKPSFGRSILKPSTPVPSPESEEVGEGSEEQEGAPKSVLGKVKIFEKMDHKARLQRMQELQEAQNARIEIAQKHPDIYAVPIKTHKPDPGLSQHTSSRPPEPQKGPSRLYQDPRGSYGSDAEEEEYRQQLSEHSKRGYYSQPSRYRDTEL
binds: all assays above

B2: Cingulin (protein, UniProt A7YH32 1-1196)
chain: MEQASTMAEPRGPVDHGVQIRFITEPVGNAEMDTLRRGGRRPAKDARANTYGVAVRVQGIAGQPFVVLNSGEQGSDSFGVQIKGTNNRGPPGALSSDSELPESTYSHAKEFPARSQGSMSDEELGAHWNGRLLRSQSQASLKGPAPVSPSTRSTSLLQLAPEVASPGSTIDTAPLSSVDSLINKFDSRQGGQARGRTGRRMRTLPPEQRKRSQSLDNRLPRDTLDEREHQFPTHWTPSTKRDSHMGNSKQSSQNQGPLGGFSCSRQTQDWVLQSFEEPRGRAWDPGMLQFKSTPDLLRDQQETAPPGSVDHVKATIYSILREGSSETETSVRRKVNLVLEQMQPLVMTSGSAKGLTGQSELSQKVEELQQKLDEEVKKRPKLESSRLGLERQLQEKAEECSQLQELLERRKGEAQQSTKELQNMKLLVDQSERVRCGLEAQVKELQDKLKQAQEPEPAKEALMKDLLEARELLEEVLEGKQRMEEHLRLRERELTALKGALKEEVASRDQEVEHVRQQCQRDAEQLRRSIQDATQDHAALEVERQKMSTLVRELQKELEETSEETGHWQSMFQKNKDELRATKQELLQLRMEKEEIEEELGEKIEVLQRELGQARAGAADTRQMEELKKELCQTQKELKELKEEQQNQEVAGRHRERELEKQLKVEADRGQGLEQQNLQLQKTLQQLRQDCEEASKAQVAAEAEVAVLGQRRAAVEVTLRETQEENDEFRRRILGLEQQLKEARGLAEGGEVAEARLRDKVQRLEAEKQRLEEALNAAQEEEGSLAAAKRALEARLEEAQRGLARLGQEQLALNRALEEEGKQREALRRSKAELEEQKRLLDKTVCQLNKELEQIGNDSKQALQQLQAQLEDYKEKARREVADAQRQAKEWATEAEKNSGGLSRLQDETQRLRQALQASQADRDTARLDKELLAQRLQGLEQEAENKKRSQDDRARQLKGLEEKVSRLEAELDEERSTVELLTERVTRGRDQVDQLRSELMQERSARQDLECDKISLERQNKDLKSRLASSEGFQKPSASLSQLESQNQELQERLQAEEREKTVLQSTNRKLERRVKELSIQIDDERQHVNDQKDQLSLRVKALKRQVDEAEEEIERLDGLRKKAQRELEEQHEVNEQLQARIKTLEKDSWRKASRSAAESAQREGLSSDEEFDSVYDPSSIASLLTESNLQTSSC
binds: Afadin-BL (rat) [3] | BL-Afadin (rat) [4]
